Among the data in publication PMC7862700 are binding signal values, retold here.

Amino acid sequences for entries named in this document (tags omitted). A change or cut given only in a name is not applied to a line headed by its entry.
UniProt P32519: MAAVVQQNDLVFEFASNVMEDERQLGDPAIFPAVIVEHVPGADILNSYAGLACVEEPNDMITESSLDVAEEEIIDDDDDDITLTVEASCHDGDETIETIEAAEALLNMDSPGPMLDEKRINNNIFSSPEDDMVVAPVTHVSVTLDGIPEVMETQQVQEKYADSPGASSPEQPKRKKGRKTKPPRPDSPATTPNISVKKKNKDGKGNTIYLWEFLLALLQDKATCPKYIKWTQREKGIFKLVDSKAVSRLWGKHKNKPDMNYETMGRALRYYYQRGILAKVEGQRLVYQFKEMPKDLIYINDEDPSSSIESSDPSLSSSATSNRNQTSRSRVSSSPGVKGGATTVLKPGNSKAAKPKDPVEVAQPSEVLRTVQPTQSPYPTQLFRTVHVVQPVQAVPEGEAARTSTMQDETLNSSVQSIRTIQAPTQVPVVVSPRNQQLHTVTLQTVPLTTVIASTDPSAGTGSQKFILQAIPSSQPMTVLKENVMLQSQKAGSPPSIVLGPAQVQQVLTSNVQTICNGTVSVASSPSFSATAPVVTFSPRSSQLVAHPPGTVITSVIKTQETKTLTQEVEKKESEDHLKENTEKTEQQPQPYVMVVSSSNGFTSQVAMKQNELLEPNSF
UniProt P50549: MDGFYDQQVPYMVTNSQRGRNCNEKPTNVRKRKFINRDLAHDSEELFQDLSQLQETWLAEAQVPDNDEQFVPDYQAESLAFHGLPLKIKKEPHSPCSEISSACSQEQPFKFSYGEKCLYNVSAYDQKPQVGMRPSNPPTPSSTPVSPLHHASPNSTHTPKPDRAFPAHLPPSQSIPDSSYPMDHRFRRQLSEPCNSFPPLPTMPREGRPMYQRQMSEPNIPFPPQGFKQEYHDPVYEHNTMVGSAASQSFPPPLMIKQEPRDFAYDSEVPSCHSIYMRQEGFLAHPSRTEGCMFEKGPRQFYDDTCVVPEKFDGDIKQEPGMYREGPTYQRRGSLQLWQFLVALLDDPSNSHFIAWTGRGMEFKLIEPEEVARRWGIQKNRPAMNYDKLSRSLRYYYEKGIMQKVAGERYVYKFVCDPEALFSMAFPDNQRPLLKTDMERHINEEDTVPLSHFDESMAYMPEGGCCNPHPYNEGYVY

What all share (test): DAPPL (digital affinity profiling via proximity ligation, sequencing)
Holding throughout (conditions): 10 mM Tris-HCl pH 7.5, 50 mM NaCl, 1 mM DTT, 4% glycerol, room temperature, 30 min; GST-TFs on glutathione beads, 16-mer random dsDNA library, 0.1% …; high values mean tight binding; double strand, one strand shown; scale: fold enrichment (6-mer frequency, TF over GST control)

One assay addresses T1, ERG (UniProt P11308).
T1 sequence: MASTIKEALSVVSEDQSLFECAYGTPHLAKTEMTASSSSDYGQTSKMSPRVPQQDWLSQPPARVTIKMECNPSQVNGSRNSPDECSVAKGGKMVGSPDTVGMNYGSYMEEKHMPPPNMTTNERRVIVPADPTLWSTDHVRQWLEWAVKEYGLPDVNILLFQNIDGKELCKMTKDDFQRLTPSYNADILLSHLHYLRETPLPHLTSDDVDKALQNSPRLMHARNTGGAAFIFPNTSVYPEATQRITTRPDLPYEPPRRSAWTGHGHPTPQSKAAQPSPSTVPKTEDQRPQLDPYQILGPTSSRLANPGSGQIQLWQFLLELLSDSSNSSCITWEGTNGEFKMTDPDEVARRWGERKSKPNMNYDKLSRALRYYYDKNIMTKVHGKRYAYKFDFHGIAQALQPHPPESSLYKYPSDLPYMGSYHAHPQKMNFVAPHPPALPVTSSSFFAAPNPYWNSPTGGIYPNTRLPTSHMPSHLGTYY

In another assay the target is ELF1 (UniProt P32519).
The next assay has as its target T2, ELK4 (UniProt P28324-2).
T2 sequence: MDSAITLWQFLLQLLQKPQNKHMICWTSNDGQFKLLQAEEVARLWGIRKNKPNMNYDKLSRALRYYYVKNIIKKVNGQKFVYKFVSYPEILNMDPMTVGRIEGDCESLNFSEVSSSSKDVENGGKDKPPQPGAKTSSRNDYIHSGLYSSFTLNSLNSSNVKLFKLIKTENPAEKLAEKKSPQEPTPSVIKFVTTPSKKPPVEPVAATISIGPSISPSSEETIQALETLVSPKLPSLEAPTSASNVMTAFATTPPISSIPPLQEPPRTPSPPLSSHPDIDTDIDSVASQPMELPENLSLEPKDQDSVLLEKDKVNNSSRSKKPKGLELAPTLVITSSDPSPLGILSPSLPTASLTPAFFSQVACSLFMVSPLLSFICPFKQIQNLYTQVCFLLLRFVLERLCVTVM

For a further assay, the target named is T3, ETV4 (UniProt P43268).
T3 sequence: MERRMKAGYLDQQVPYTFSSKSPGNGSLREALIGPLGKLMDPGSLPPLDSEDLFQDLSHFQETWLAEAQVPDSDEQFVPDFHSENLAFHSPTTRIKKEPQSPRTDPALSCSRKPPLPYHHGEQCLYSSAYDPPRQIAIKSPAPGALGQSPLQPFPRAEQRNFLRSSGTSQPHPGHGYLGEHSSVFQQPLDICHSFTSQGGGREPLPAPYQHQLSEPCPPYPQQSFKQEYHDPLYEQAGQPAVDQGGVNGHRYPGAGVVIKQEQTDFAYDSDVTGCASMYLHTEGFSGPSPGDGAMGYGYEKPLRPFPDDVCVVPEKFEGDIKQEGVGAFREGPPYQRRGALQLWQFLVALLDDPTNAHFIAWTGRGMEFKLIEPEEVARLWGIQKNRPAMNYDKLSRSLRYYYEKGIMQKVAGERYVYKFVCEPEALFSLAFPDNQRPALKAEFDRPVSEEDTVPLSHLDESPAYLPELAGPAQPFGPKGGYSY

A further assay addresses ETV1 (UniProt P50549).
For the next assay, the target named is T4, ERF (UniProt P50548).
T4 sequence: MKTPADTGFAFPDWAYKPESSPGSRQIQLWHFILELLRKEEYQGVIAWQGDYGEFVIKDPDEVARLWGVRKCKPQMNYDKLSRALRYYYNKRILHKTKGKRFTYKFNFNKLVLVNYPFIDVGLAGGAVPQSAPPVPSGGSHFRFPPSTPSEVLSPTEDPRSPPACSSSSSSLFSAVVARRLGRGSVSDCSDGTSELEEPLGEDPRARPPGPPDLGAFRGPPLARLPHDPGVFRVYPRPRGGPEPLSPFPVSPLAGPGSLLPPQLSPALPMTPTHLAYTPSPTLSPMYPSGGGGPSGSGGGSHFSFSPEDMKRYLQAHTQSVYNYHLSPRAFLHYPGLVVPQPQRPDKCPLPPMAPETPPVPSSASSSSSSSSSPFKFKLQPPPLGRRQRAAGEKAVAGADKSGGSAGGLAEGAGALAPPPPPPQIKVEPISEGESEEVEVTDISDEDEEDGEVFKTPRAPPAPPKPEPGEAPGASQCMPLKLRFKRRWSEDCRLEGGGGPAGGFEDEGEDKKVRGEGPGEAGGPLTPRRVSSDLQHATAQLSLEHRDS

This is a selection; strong and weak results do not stand in their true shares. For part of these data: At the low end of the ranking the order means little. The list shows a part of the results. For part of these data: The source does not settle which construct or isoform was used.

As for TGCAGT, the binding signal in the assay with ERG was 0.771; with ELF1, 0.838; in the assay with ELK4 it was 0.942; in the assay with ETV4, 0.777; with ETV1, 0.773; with ERF, 0.845.

On to TGAGTG, for which the binding signal was found to be 0.43 with ERG; 0.478 with ELF1; 0.449 in the assay with ELK4; 0.486 with ETV4; 0.483 with ETV1; 0.478 with ERF.

Consider GGCCCG, for which the binding signal was found to be 0.8 in the assay with ERG; 0.83 with ELF1; 0.851 in the assay with ELK4; 0.744 with ETV4; 0.736 with ETV1; 0.727 with ERF.

With GGAGGT, the binding signal is 0.351 in the assay with ERG; 0.318 in the assay with ELF1; 0.31 with ELK4; 0.344 with ETV4; 0.366 with ETV1; 0.325 with ERF.

Consider GTGATT, for which the binding signal amounted to 0.754 with ERG; 0.703 with ELF1; 0.752 in the assay with ELK4; 0.749 in the assay with ETV4; 0.789 with ETV1; 0.765 with ERF.

On to GAGGAC, for which the binding signal with ERG worked out at 0.583; with ELF1, 0.658; with ELK4, 0.543; in the assay with ETV4, 0.66; with ETV1, 0.561; with ERF it was 0.553.

Turning to GGACGT, the binding signal in the assay with ERG was found to be 0.629; in the assay with ELF1, 0.544; in the assay with ELK4, 0.526; with ETV4, 0.565; in the assay with ETV1, 0.61; in the assay with ERF, 0.553.

Turning to TAGGGA, the binding signal with ERG stood at 0.812; with ELF1 it was 0.796; with ELK4 it was 0.761; with ETV4, 0.8; with ETV1 it was 0.747; with ERF it was 0.877.

As for CAGGTA, the binding signal is 0.818 with ERG; 0.725 with ELF1; 0.809 with ELK4; 0.77 in the assay with ETV4; 0.827 with ETV1; 0.869 in the assay with ERF.

Regarding GTCTGT, the binding signal with ERG turned out to be 0.904; with ELF1, 0.842; with ELK4, 0.997; with ETV4, 0.873; with ETV1, 1.01; in the assay with ERF it was 0.876.

As to AGACTG, the binding signal in the assay with ERG amounted to 0.481; in the assay with ELF1 it was 0.526; with ELK4, 0.575; with ETV4, 0.548; in the assay with ETV1, 0.558; in the assay with ERF, 0.511.

Consider ACCGTA, for which the binding signal is 0.892 in the assay with ERG; 0.933 in the assay with ELF1; 0.957 in the assay with ELK4; 0.846 with ETV4; 0.848 in the assay with ETV1; 0.943 in the assay with ERF.

Consider GGTACC, for which the binding signal with ERG was found to be 0.759; in the assay with ELF1, 0.851; with ELK4 it was 0.884; with ETV4, 0.8; with ETV1, 0.84; in the assay with ERF it was 0.795.

With TACCGT, the binding signal with ERG was 0.614; with ELF1, 0.685; with ELK4, 0.68; with ETV4 it was 0.642; with ETV1, 0.585; with ERF, 0.672.

In the case of CGGGTC, the binding signal came to 0.714 in the assay with ERG; 0.721 in the assay with ELF1; 0.559 in the assay with ELK4; 0.691 with ETV4; 0.737 with ETV1; 0.737 in the assay with ERF.

Take AGAACG: the binding signal was 0.427 with ERG; 0.423 with ELF1; 0.432 with ELK4; 0.412 in the assay with ETV4; 0.473 with ETV1; 0.463 with ERF.

For the sequence CCCGGG, the binding signal with ERG turned out to be 0.775; in the assay with ELF1, 0.849; with ELK4 it was 0.872; with ETV4, 0.83; in the assay with ETV1, 0.848; with ERF, 0.8.

For the sequence CAGGTG, the binding signal was found to be 0.543 with ERG; 0.56 in the assay with ELF1; 0.603 in the assay with ELK4; 0.547 with ETV4; 0.583 with ETV1; 0.581 with ERF.

In the case of GGGGCG, the binding signal with ERG stood at 0.639; with ELF1, 0.649; with ELK4, 0.593; with ETV4, 0.637; in the assay with ETV1, 0.634; in the assay with ERF, 0.67.

Regarding GCCGTA, the binding signal with ERG came out at 0.837; with ELF1, 0.871; with ELK4, 0.8; with ETV4, 0.807; in the assay with ETV1, 0.838; with ERF it was 0.805.

For the sequence GAGCAA, the binding signal amounted to 0.774 with ERG; 0.755 with ELF1; 0.736 with ELK4; 0.744 with ETV4; 0.749 with ETV1; 0.813 in the assay with ERF.

For the sequence AGCGGT, the binding signal in the assay with ERG was 0.772; with ELF1 it was 0.672; in the assay with ELK4 it was 0.803; with ETV4, 0.69; in the assay with ETV1 it was 0.716; with ERF, 0.726.

Turning to TGGGGC, the binding signal was 0.778 in the assay with ERG; 0.857 in the assay with ELF1; 0.9 in the assay with ELK4; 0.798 with ETV4; 0.912 in the assay with ETV1; 0.847 in the assay with ERF.

Consider TGAGAT, for which the binding signal amounted to 0.713 with ERG; 0.698 with ELF1; 0.822 in the assay with ELK4; 0.593 with ETV4; 0.698 with ETV1; 0.765 with ERF.

On to GCTTGA, for which the binding signal in the assay with ERG was found to be 0.91; in the assay with ELF1 it was 0.923; with ELK4, 0.982; in the assay with ETV4, 0.956; with ETV1 it was 0.927; in the assay with ERF it was 0.745.

On to CTAGAG, for which the binding signal in the assay with ERG stood at 0.821; with ELF1, 0.865; with ELK4, 0.914; in the assay with ETV4, 0.856; with ETV1 it was 0.869; with ERF, 0.838.

Consider CGAGTC, for which the binding signal in the assay with ERG turned out to be 0.518; in the assay with ELF1, 0.508; in the assay with ELK4, 0.464; with ETV4, 0.551; in the assay with ETV1 it was 0.511; with ERF, 0.52.

Turning to AGGGGC, the binding signal amounted to 0.836 with ERG; 0.746 in the assay with ELF1; 0.754 with ELK4; 0.809 with ETV4; 0.764 with ETV1; 0.881 in the assay with ERF.

TAGACC: the binding signal with ERG is 0.822; with ELF1, 0.87; with ELK4 it was 0.787; with ETV4 it was 0.864; with ETV1, 0.815; in the assay with ERF it was 0.856.

Take GAATCG: the binding signal was 0.635 with ERG; 0.617 with ELF1; 0.661 with ELK4; 0.582 in the assay with ETV4; 0.654 with ETV1; 0.603 with ERF.
